Measurements as given in patent US20150079118A1, “MicroRNA Treatment for Asthma” (UNIVERSITY OF SOUTHAMPTON, priority 2013, published 2015).
Entries after “also recorded” stand apart in the source; their conditions may differ. At least one compound was matched to its structure with a doubt left.

System: miR-150, miR-152 and miR-375
Test: Effect of dexamethasone on miRNA expression in healthy alveolar macrophages (qPCR)
Type: cell-based, human
Details: healthy AM, 24 and 48 hours, vs control sample

C[C@@H]1C[C@H]2[C@@H]3CCC4=CC(=O)C=C[C@]4(C)[C@@]3(F)[C@@H](O)C[C@]2(C)[C@@]1(O)C(=O)CO [dexamethasone]
no change; also recorded: not alter: Expression of miR-150 | Expression of miR-152 | Expression of miR-375
